This passage reports binding results from paper PMC9215227.

By UniProt entry, the sequences of proteins in these tests, tags left out.
UniProt P33469: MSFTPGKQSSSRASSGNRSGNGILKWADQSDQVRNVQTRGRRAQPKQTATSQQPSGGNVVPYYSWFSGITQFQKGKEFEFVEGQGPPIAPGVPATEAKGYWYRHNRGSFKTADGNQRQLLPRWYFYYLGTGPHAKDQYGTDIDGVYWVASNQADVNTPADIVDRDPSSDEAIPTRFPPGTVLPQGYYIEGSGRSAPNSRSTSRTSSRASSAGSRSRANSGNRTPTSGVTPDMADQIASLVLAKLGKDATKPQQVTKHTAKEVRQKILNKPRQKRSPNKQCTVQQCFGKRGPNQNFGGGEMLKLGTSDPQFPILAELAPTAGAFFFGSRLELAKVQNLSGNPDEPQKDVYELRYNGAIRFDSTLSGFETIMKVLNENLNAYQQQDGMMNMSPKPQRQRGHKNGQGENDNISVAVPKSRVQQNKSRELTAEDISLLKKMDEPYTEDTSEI

No constants are given. Whether binding was seen depends on the method and setting. In cells and extracts the contact can be indirect. Some entries that bind do so weakly or less than the wild type. For some assays here: Tags and fused reporters may be left off the sequences shown.

One assay has as its target T1, Flag-G3BP2 (UniProt Q9UN86).
T1 sequence: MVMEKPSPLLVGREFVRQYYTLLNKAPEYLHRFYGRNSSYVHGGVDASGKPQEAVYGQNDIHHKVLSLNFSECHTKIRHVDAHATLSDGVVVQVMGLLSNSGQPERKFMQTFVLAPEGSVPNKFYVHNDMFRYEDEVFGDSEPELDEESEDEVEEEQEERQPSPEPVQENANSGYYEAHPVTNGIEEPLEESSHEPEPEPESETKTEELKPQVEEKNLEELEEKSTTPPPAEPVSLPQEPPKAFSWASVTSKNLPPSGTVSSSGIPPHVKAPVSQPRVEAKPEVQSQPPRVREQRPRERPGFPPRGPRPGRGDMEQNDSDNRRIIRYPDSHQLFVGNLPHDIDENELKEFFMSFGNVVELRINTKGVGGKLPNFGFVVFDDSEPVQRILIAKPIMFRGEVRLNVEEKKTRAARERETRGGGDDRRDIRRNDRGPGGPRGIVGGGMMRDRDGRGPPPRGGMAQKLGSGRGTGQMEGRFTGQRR
Briefly: co-IP.

The target in another assay is Flag-G3BP1 (UniProt Q13283). As to the kind of experiment: co-IP.

For the substance “eGFP-tagged NP^HCoV-OC43 (from UniProt P33469 1-448)”, the binding result with Flag-G3BP2 is “binds”. With “NP^SARS-CoV-green fluorescent protein (GFP) (from UniProt P59595 1-422)”, the binding entry with Flag-G3BP1 is “binds”.
